Results taken from PubChem BioAssay AID504648 (National Center for Advancing Translational Sciences (NCATS), 2011).
The whole screen tested about 390,000 compounds, of which about 610 (0.16%) were called active. The inconclusive results got no clear call from the source; some entries with a clear call stand among them for comparison. Calls come from the whole dose curve; as a rule, active = well fitted inhibition curve with a large enough effect; inconclusive = small, poorly fitted or top-dose-only effect, or effect the other way, or another doubt; inactive = no such curve, though single readings can be large or run the other way. Where the call is inconclusive, the potency comes from a doubtful curve fit.

Test: Nrf2 qHTS screen for inhibitors: counterscreen for cytotoxicity
Details: A549 ARE-Fluc cells, CellTiter-Fluor viability, 18-24 h; activity change, negative = cytotoxicity: at 46 µM (top of the series)
How it was run: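 Cytotoxicity counterscreen: CellTiter-Fluor fluorescence was measured in A549 ARE_Fluc cells after 18-24 h of compound exposure in a concentration series. The subsequent BugLite luminescent read reports ARE-luciferase activity.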
% is set by controls: 0 for no effect and ±100 for the full control effect; potency is the fitted concentration of half-maximal effect.

Row | Compound | Potency | activity change, negative = cytotoxicity
1 | Cn1cc(/C=C2\SC(=S)N(NC(=O)c3ccccc3Cl)C2=O)c2ccccc21 | inconclusive: 13 µM [falling, partial curve, poor fit] | 
2 | CCOC(=O)c1cnc(-n2cc(C)cn2)nc1Nc1ccccc1OCC |  | inactive: -7.99%
3 | Cc1ccc(NC(=O)C(=O)c2c(-c3ccccc3)cc3ccccn23)cc1S(=O)(=O)N1CCOCC1 | inconclusive: 25.9 µM [falling, partial curve, poor fit] | 
4 | Cc1cc(Nc2ccccc2Br)n2nc(C)nc2n1 | inconclusive: 7.31 µM [activator, partial curve, poor fit] | 
5 | COCC(C)n1c(C)cc(C(=O)COC(=O)c2ccc3c(c2)NC(=O)CS3)c1C (stereo unspecified) | inconclusive: 32.6 µM [activator, partial curve, poor fit] | 
6 | CC1(C)CC(=O)C(C2C3=C(CC(C)(C)CC3=O)Oc3ccccc32)C(=O)C1 (stereo unspecified) | inconclusive: 18.4 µM [falling, single point] | 
7 | C=C(C)COc1ccc(-c2n[nH]c(C)c2-c2ccccc2)c(O)c1 | inconclusive: 18.4 µM [falling, partial curve, poor fit] | 
8 | COc1ccc(Cn2c(SCc3ccc(C)cc3)nc3cc(OC)c(OC)cc3c2=N)cc1Cl | inconclusive: 18.4 µM [falling, single point] | 
9 | CC(C)CCSc1nc(N)c(C#N)cc1C#N | inconclusive: 5.8 µM [falling, partial curve, poor fit] | 
10 | CCc1ccc(/C=C/c2c[nH]c3ccccc23)[n+](CC)c1 | inconclusive: 16.4 µM [falling, partial curve] | 
11 | OCCn1c(SC2CCCCC2)nc2ccccc21 | inconclusive: 25.9 µM [falling, single point] | 
12 | COC(=O)c1c(C)oc2ccc(N(C(=O)c3ccncc3)S(=O)(=O)c3ccc(OC)cc3)cc12 | inconclusive: 7.31 µM [falling, partial curve, poor fit] | 
13 | COCCn1nnnc1C(c1ccc(O)c(OC)c1)N1CCc2ccccc2C1 (stereo unspecified) | inconclusive: 5.17 µM [activator, single point] | 
14 | O=[N+]([O-])c1cc(Cl)cc(/C=N/NC(=S)Nc2ccc(S(=O)(=O)N3CCOCC3)cc2)c1O |  | inactive: -4.74%
15 | COc1ccc(CC(=O)Nc2cccc(Cl)c2C)cc1S(=O)(=O)N1CCOCC1 |  | inactive: 7.12%
16 | Cc1cc(C)c2nc(C)cc(N/N=C/c3ccc(O)cc3)c2c1 | inconclusive: 20.6 µM [falling, single point] | 
17 | COC(=O)C(C)Sc1n[nH]c(=S)s1 (stereo unspecified) |  | inactive: 1.78%
18 | CCc1cc2ccc(C)cc2nc1SCC(=O)N1CCN(C(=O)c2ccco2)CC1 | inconclusive: 20.6 µM [falling, single point] | 
19 | CCN1CCN(c2ccc([N+](=O)[O-])c(Sc3nc4ccccc4[nH]3)c2)CC1 | inconclusive: 16.4 µM [falling, single point] | 
20 | CCn1cc2nc(SCc3cc(C)ccc3C)n(CCc3ccccc3)c(=O)c2n1 |  | inactive: -10.3%
21 | Cc1cc(NC(=O)c2cccc(S(=O)(=O)N3CC(c4ccccc4)CC3=O)c2)no1 (stereo unspecified) |  | inactive: 0.387%

Row | Compound | Potency | activity change, negative = cytotoxicity
22 | O=C(CSc1ccc(Cl)cc1)N1CCN(c2ccc(Cl)cc2[N+](=O)[O-])CC1 | inconclusive: 25.9 µM [falling, single point] | 
23 | CCC(C)/C(C)=N/NC(=O)CSc1nc2ccccc2[nH]1 (stereo unspecified) | inconclusive: 4.61 µM [activator, partial curve, poor fit] | 
24 | CCCN(CCC)CCNC(=O)C1c2ccccc2C(=O)N(CCOC)C1c1ccc(F)cc1 (stereo unspecified) | inconclusive: 5.17 µM [activator, single point] | 
25 | O=C1CC(N2CCOCC2)C(=O)N1c1cc(Cl)cc(Cl)c1 (stereo unspecified) | inconclusive: 29.1 µM [activator, single point] | 
26 | COC(=O)C1=C(C)Nc2nnnn2C1c1cccnc1 (stereo unspecified) |  | inactive: 12.1%
27 | CC(C)=C1C2CCC1C1C(=O)N(c3nc(-c4ccc(C(C)C)cc4)c(C)s3)C(=O)C21 (stereo unspecified) | inconclusive: 9.2 µM [falling, partial curve, poor fit] | 
28 | Cc1cccc(CSc2nnc(CCCCCNC(=O)OC(C)(C)C)o2)c1 | inconclusive: 18.4 µM [falling, partial curve, poor fit] | 
29 | N#Cc1cccc2c1-c1ccccc1/C2=N/NC(N)=S | inconclusive: 20.6 µM [falling, single point] | 
30 | Cn1cccc1Cc1nnc(SCC(=O)NCc2ccccc2Cl)n1-c1ccc(F)cc1 |  | inactive: 10.4%
31 | O=C(/C=C/c1cccc([N+](=O)[O-])c1)OC1CCCCC1=O (stereo unspecified) |  | inactive: 0.725%
32 | CCCOc1ccc(C2C(C(=O)/C=C/c3ccco3)=C(O)C(=O)N2CCN2CCOCC2)cc1OC (stereo unspecified) | inconclusive: 16.4 µM [falling, partial curve, poor fit] | 
33 | Cc1ccc(NC(=O)CSc2n[nH]c(-c3ccccn3)n2)cc1 | inconclusive: 32.6 µM [falling, partial curve, poor fit] | 
34 | CN(CC(=O)NC(=O)NCc1ccccc1)CC(=O)Nc1ccc(Cl)c(Cl)c1 |  | inactive: -8.76%
35 | CCn1c(N2CCC(C)CC2)nc2c1c(=O)n(C)c(=O)n2C | inconclusive: 6.51 µM [falling, partial curve, poor fit] | 
36 | CCc1ccc(NC(=O)CN2C(=O)c3cccc4cccc2c34)cc1 |  | inactive: 2.62%
37 | Cc1cccc(NC(=O)Cn2c(O)c(N=NC(=O)c3ccccc3O)c3ccccc32)c1 | inconclusive: 32.6 µM [falling, partial curve, poor fit] | 
38 | CCOC(=O)c1cc(=O)n2nc(-c3ccccc3F)nc2s1 |  | inactive: -4.67%
39 | Cc1c(C(=O)NCc2cccc(Cl)c2)sc2nc3n(c(=O)c12)CCCC3 | inconclusive: 18.4 µM [activator, partial curve, poor fit] | 
40 | Cc1cccc(C2c3[nH]c4ccccc4c3CCN2C(=O)Cc2nc(-c3ccccc3)n[nH]2)n1 (stereo unspecified) | inconclusive: 29.1 µM [falling, single point] | 
41 | COc1ccc(C2=C(N3CCN(c4cccc(C)c4C)CC3)c3ccccc3C2=O)cc1 | inconclusive: 18.4 µM [falling, partial curve, poor fit] | 

3 compounds already listed, sorted by count of non-hydrogen atoms, rising:
Row | Compound | Potency | activity change, negative = cytotoxicity
7 | C=C(C)COc1ccc(-c2n[nH]c(C)c2-c2ccccc2)c(O)c1 | inconclusive: 18.4 µM [falling, partial curve, poor fit] | 
18 | CCc1cc2ccc(C)cc2nc1SCC(=O)N1CCN(C(=O)c2ccco2)CC1 | inconclusive: 20.6 µM [falling, single point] | 
12 | COC(=O)c1c(C)oc2ccc(N(C(=O)c3ccncc3)S(=O)(=O)c3ccc(OC)cc3)cc12 | inconclusive: 7.31 µM [falling, partial curve, poor fit] | 
